Binding data for one molecule are collected here from article PMC7547098.

Amino acid sequences for entries named in this document (tags omitted).
UniProt P61956: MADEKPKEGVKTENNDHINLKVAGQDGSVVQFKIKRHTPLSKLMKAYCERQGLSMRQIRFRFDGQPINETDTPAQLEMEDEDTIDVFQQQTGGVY

The target of this test is small ubiquitin-like modifier 2 (SUMO2), two-hybrid bait (UniProt P61956). Kind of test: two-hybrid; yeast two-hybrid screen for cardiac interactors of SUMO2.

Results are given in words; binding and its absence hold for the method and conditions named. Some entries that bind do so weakly or less than the wild type.

B1: HectD3, two-hybrid prey (protein, UniProt Q5T447 1-861)
chain: MAGPGPGAVLESPRQLLGRVRFLAEAARSLRAGRPLPAALAFVPREVLYKLYKDPAGPSRVLLPVWEAEGLGLRVGAAGPAPGTGSGPLRAARDSIELRRGACVRTTGEELCNGHGLWVKLTKEQLAEHLGDCGLQEGWLLVCRPAEGGARLVPIDTPNHLQRQQQLFGVDYRPVLRWEQVVDLTYSHRLGSRPQPAEAYAEAVQRLLYVPPTWTYECDEDLIHFLYDHLGKEDENLGSVKQYVESIDVSSYTEEFNVSCLTDSNADTYWESDGSQCQHWVRLTMKKGTIVKKLLLTVDTTDDNFMPKRVVVYGGEGDNLKKLSDVSIDETLIGDVCVLEDMTVHLPIIEIRIVECRDDGIDVRLRGVKIKSSRQRELGLNADLFQPTSLVRYPRLEGTDPEVLYRRAVLLQRFIKILDSVLHHLVPAWDHTLGTFSEIKQVKQFLLLSRQRPGLVAQCLRDSESSKPSFMPRLYINRRLAMEHRACPSRDPACKNAVFTQVYEGLKPSDKYEKPLDYRWPMRYDQWWECKFIAEGIIDQGGGFRDSLADMSEELCPSSADTPVPLPFFVRTANQGNGTGEARDMYVPNPSCRDFAKYEWIGQLMGAALRGKEFLVLALPGFVWKQLSGEEVSWSKDFPAVDSVLVKLLEVMEGMDKETFEFKFGKELTFTTVLSDQQVVELIPGGAGIVVGYGDRSRFIQLVQKARLEESKEQVAAMQAGLLKVVPQAVLDLLTWQELEKKVCGDPEVTVDALRKLTRFEDFEPSDSRVQYFWEALNNFTNEDRSRFLRFVTGRSRLPARIYIYPDKLGYETTDALPESSTCSSTLFLPHYASAKVCEEKLRYAAYNCVAIDTDMSPWEE
Turning to B1, the binding result was “binds”.
